Laboratory results from PubChem BioAssay AID2685 (National Center for Advancing Translational Sciences (NCATS), 2010).
About 2,100 (0.66%) of roughly 320,000 compounds were called active. The shares of active, inactive and inconclusive entries below differ from those in the screen. The call rests on the fitted dose curve; in most records, active means well fitted inhibition curve with a large enough effect in the signal ratio, with a control signal flat (not every such curve was filed as active); inconclusive means small, poorly fitted or top-dose-only effect, or effect the other way, or a change in a side signal; inactive means flat fitted curve, though single readings scatter; the % refers to the signal ratio. Where the call is inconclusive, the potency comes from a doubtful curve fit.

assay: qHTS Assay for Lipid Storage Modulators in Drosophila S3 Cells; details: BODIPY lipid droplet fluorescence, 18-24 h, cells fed with added oleic acid; lipid storage change, negative = inhibition: at 46.1 µM (top of the series) unless noted
In short: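 Laser-scanning cytometry quantifies lipid droplet accumulation (500–530 nm total intensity; droplet/cell object ratio) in oleic acid-fed (400 uM added) Drosophila S3 cells treated with a concentration series. 20 uM Triacsin C defined 100% inhibition.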
On the % scale 0 is the no-effect control and ±100 the full control effect; potency means the concentration at half of the fitted maximal effect.

Row | Compound | Potency | lipid storage change, negative = inhibition
1 | O=C(c1cc(-c2ccc(O)cc2)on1)N1CCCC1 | inconclusive: 6.51 µM [activator, partial curve] | –
2 | CCOc1ccccc1C(=O)NC1CCN(Cc2ccccc2)CC1 | – | inconclusive: 20.7%
3 | Cc1cc(NC(=O)CSc2nnc(Cc3ccccc3)o2)no1 | – | inconclusive: 20.2%
4 | CCCOc1ccccc1C1CC(=O)NC(C)=C1C(=O)OCC(C)C (stereo unspecified) | – | inconclusive: -25.3%
5 | O=C(O)Cn1cc(C(=O)C(F)(F)F)c2ccccc21 | – | inconclusive: -22.5%
6 | CCC(C)NC(=O)c1c(N)n(/N=C/c2cccs2)c2nc3ccccc3nc12 (stereo unspecified) | – | inconclusive: -31.8%
7 | Cn1c(O)c(N=NC(=O)CNC(=O)c2cccnc2)c2ccccc21 | – | inconclusive: -36.5%
8 | Cc1cc(C(=O)COC(=O)c2ccc(CO)cc2)c(C)n1CC1COc2ccccc2O1 (stereo unspecified) | inconclusive: 0.0259 µM [activator, full curve] | –
9 | CN(C)/N=C1\CCS(=O)(=O)c2sccc21 | inconclusive: 29.1 µM [falling, single point] | –
10 | Cc1cccc(N2C(=O)C3CC3C2=O)c1 (stereo unspecified) | – | inconclusive: 18.8%
11 | Cc1c(NC(=O)c2cc3ccccc3c(=O)s2)c(=O)n(-c2ccccc2)n1C | – | inconclusive: -16.3%
12 | CC(=O)OC(COc1cccc(C)c1)Cn1cnc2ccccc21 (stereo unspecified) | – | inconclusive: 37.1%
13 | CC(C)(C)c1cnnn1-c1ccc(/C=N/Nc2ccc([N+](=O)[O-])cc2)cc1 | inconclusive: 32.6 µM [falling, single point] | –
14 | CC1CCCN(S(=O)(=O)c2cccc(-c3cn4cccnc4n3)c2)C1 (stereo unspecified) | – | inconclusive: 16.8%
15 | COc1ccccc1OCCCC(=O)Nc1ccc([N+](=O)[O-])cc1Br | – | inconclusive: -32.6% [at 0.00295 µM]
16 | CC(C)(C)NCC(O)COc1ccccc1C(C)(C)C (stereo unspecified) | – | inconclusive: -59.4%
17 | Nc1nnc(SCC(=O)N2CCCCC2)s1 | inconclusive: 0.116 µM [falling, full curve, poor fit] | –
18 | COc1ccc([C@@H]2[C@@H]3C(=O)N(C(C)(C)C)C(=O)[C@@H]3[C@]3(C)C(=O)N(c4ccc(C)cc4)C(=O)N23)cc1 | inconclusive: 20.6 µM [falling, single point] | –
19 | CCc1ccc(C(=O)COC(=O)CNC(=O)c2ccco2)cc1 | – | inconclusive: -9.81%
20 | Cc1ccc(O)c(C2=Nc3ccccc3N=C(c3cccs3)C2)c1 | – | inconclusive: -96.9%
21 | CCC(=O)N1CCN(c2ccc(Cl)cc2NC(=O)c2ccc([N+](=O)[O-])o2)CC1 | active: 5.8 µM | –
22 | FC(F)(F)c1nnc2ccc(-n3ccnc3)nn12 | – | inconclusive: -8.96%
23 | COc1cc(/C=c2\sc3n(c2=O)CCCN=3)ccc1O | – | inconclusive: -23.5%
24 | Cc1cc(NC(=O)CSc2nnc(COc3cccc(C)c3C)n2C)no1 | – | inconclusive: -5.52%
25 | O=C(COc1ccc2ccccc2c1)Nc1ccncc1 | inconclusive: 25.9 µM [falling, partial curve, poor fit] | –
26 | CCOC(=O)c1sc(-c2ccccc2)cc1NC(=O)Nc1ccccc1 | – | inconclusive: -28.1%

Copied from above, entries 18–19
Row | Compound | Potency | lipid storage change, negative = inhibition
18 | COc1ccc([C@@H]2[C@@H]3C(=O)N(C(C)(C)C)C(=O)[C@@H]3[C@]3(C)C(=O)N(c4ccc(C)cc4)C(=O)N23)cc1 | inconclusive: 20.6 µM [falling, single point] | –
19 | CCc1ccc(C(=O)COC(=O)CNC(=O)c2ccco2)cc1 | – | inconclusive: -9.81%

Remaining list, next part

Row | Compound | Potency | lipid storage change, negative = inhibition
27 | CC1Oc2ccccc2C=C1/C=C1/SC(N2CCOCC2)=NC1=O (stereo unspecified) | – | inconclusive: -30.5%
28 | O=C(CN1CCN(CCC(=O)Nc2ccccc2F)CC1)Nc1ccc(F)cc1 | – | inconclusive: 59.3%
29 | COC1CCCCC1Nc1cc(C)ccc1C (stereo unspecified) | inconclusive: 16.4 µM [falling, partial curve, poor fit] | –
30 | Cc1nc(-c2ccc(F)cc2)c(CC(=O)NCC(=O)Nc2ccc(F)c(F)c2)s1 | inconclusive: 16.4 µM [activator, partial curve] | –
31 | C=COCCn1c(-c2nonc2N)nc2ccccc21 | – | inconclusive: 16.1%
32 | CC(C)(C)c1ccc(OCC(=O)NNC(=O)Nc2ccccc2)cc1 | – | inconclusive: 291%
33 | O=C(NCCc1ccccc1)C1c2ccccc2C(=O)N1Cc1cccs1 (stereo unspecified) | – | inconclusive: -47%
34 | O=C(CCc1c[nH]c2ccccc12)N=Nc1c(O)[nH]c2ccccc12 | – | inconclusive: 14.1%
35 | O=C(c1noc2c1CCCC2)N1CCCCC1 | – | inconclusive: -67.3%
36 | O=C(OCCN1C(=O)c2ccccc2C1=O)c1cc(=O)[nH]c2ccccc12 | – | inconclusive: 96.9%
37 | O=C(NN1CCOCC1)c1cnn2c(C(F)F)cc(-c3ccccc3)nc12 | – | inconclusive: 10.9% [at 9.22 µM]
38 | CCC1(C)Cc2nc3[nH]c(=S)n(-c4ccccc4C)c(=O)c3cc2CO1 (stereo unspecified) | inconclusive: 1.84 µM [falling, full curve] | –
39 | CCCCN1C(=O)c2ccc(C(=O)Nc3ccccc3N3CCOCC3)cc2C1=O | – | inconclusive: 48.8%
40 | CCN(CC)c1ccc(C(=O)NNC(=O)CCl)cc1 | – | inconclusive: -19.6%
41 | CCC(CC)N1CCN(CC2CC=CCC2)CC1 (stereo unspecified) | – | inconclusive: -56%
42 | CCN1CCN(C(=O)/C=C/c2ccc(OC)cc2)CC1 | inconclusive: 29.1 µM [activator, single point] | –
43 | CC(C)c1ccc(/C=C(\NC(=O)c2ccccc2)C(=O)NCCCN2CCOCC2)cc1 | – | inconclusive: -1.07%
44 | O=C1CC(c2ccco2)CC(O)=C1C=Nc1cc(Cl)ccc1Cl (stereo unspecified) | – | inactive: 3.89%
45 | Cc1ccc(S(=O)(=O)CCN2CCN(c3ccccn3)CC2)cc1 | – | inactive: 11.2%
46 | Nc1c(C(=O)Nc2ccccc2)sc2nc3c(c(-c4ccco4)c12)CCCC3 | – | inactive: 12.6%
47 | CCOc1ccc(S(=O)(=O)NCC(=O)NC2CCCCC2)cc1 | – | inconclusive: 19.1%
48 | COc1ccc(NC(=O)C2CCCN(S(=O)(=O)c3cccc4cccnc34)C2)cc1OC (stereo unspecified) | inconclusive: 1.46 µM [activator, partial curve] | –
49 | Cc1cccc(OCc2nnc(SCC(=O)N(C(C)C)C(C)C)n2Cc2ccco2)c1C | inconclusive: 9.2 µM [falling, partial curve, poor fit] | –
50 | CSc1ccccc1OCc1cc(C(=O)N(C)Cc2ccncn2)no1 | – | inconclusive: 15.2%
51 | CC1CCN(S(=O)(=O)c2cccc(S(=O)(=O)N3CCCC3)c2)CC1 | – | inconclusive: -5.25%
52 | COc1ccc(C2CC(=O)c3cnc(NC(=O)c4cccc(OC)c4)nc3C2)cc1 (stereo unspecified) | – | inconclusive: -5.39%

Shown as comma-separated lines: part of the list above
Row,Compound,Potency,"lipid storage change, negative = inhibition"
29,COC1CCCCC1Nc1cc(C)ccc1C (stereo unspecified),"inconclusive: 16.4 µM [falling, partial curve, poor fit]",–
30,Cc1nc(-c2ccc(F)cc2)c(CC(=O)NCC(=O)Nc2ccc(F)c(F)c2)s1,"inconclusive: 16.4 µM [activator, partial curve]",–

Later entries.

Row | Compound | Potency | lipid storage change, negative = inhibition
53 | CCOC(=O)C1(CCOc2ccccc2)CCN(Cc2cccc(OCCO)c2)CC1 | – | inconclusive: 19.3%
54 | CCN(CC)S(=O)(=O)c1cccc(NC(=O)CN(C)Cc2cccc(OC)c2)c1 | – | inconclusive: -62%
55 | CC1CC(C)CN(C(=O)COC(=O)c2ccc(Cl)nc2)C1 (stereo unspecified) | inconclusive: 1.3 µM [falling, full curve] | –
56 | O=C(O)CCNc1nc(C(F)(F)F)nc2ccccc12 | – | inconclusive: -46.8%
57 | COc1ccc(NC(=O)CSc2nc(=O)n(CCN3CCOCC3)c3c2CCC3)cc1 | – | inconclusive: 17.3%
58 | CCN1CCN(C2=C(NS(=O)(=O)c3ccc(C)cc3)C(=O)c3ccccc3C2=O)CC1 | inconclusive: 5.17 µM [falling, single point] | –
59 | CCOC(=O)c1c(C)[nH]c(C(=O)COC(=O)c2cnccn2)c1C | – | inconclusive: 16.6%
60 | COc1cc(S(=O)(=O)NCC2COCCO2)ccc1-n1cnnn1 (stereo unspecified) | inconclusive: 0.411 µM [activator, full curve] | –
61 | O=C(NOC(=O)c1ccccc1F)c1ccc(OC(F)F)cc1 | inconclusive: 0.146 µM [activator, partial curve, poor fit] | –
62 | CCN1C(C(=O)c2ccccc2)=C(Nc2ccccc2C)c2ccccc2S1(=O)=O | inconclusive: 2.06 µM [falling, partial curve] | –
63 | C=CCN1CN(S(=O)(=O)c2cccs2)c2nc3ccccc3nc21 | inconclusive: 1.16 µM [activator, full curve] | –
64 | NC(=O)C1CC(=O)N(c2ccc(OCC(=O)Nc3cccc(C(F)(F)F)c3)cc2)C1 (stereo unspecified) | – | inconclusive: -0.139%
65 | COc1cc(/C=N/NC(=O)Cc2nnc(N)s2)cc(OC)c1OC | – | inconclusive: -19.1%
66 | CC1CCN(C(=O)COC(=O)c2ccc3c(c2)C(=O)N(Cc2ccco2)C3=O)CC1 | – | inconclusive
67 | O=C(CC(c1ccccc1)c1ccccc1O)NCCN1CCOCC1 (stereo unspecified) | inconclusive: 5.8 µM [falling, full curve] | –
68 | CCc1cc(=O)oc2c3c(cc(OCC(=O)NCc4ccccn4)c12)OC(C)(C)CC3 | inconclusive: 32.6 µM [falling, single point] | –
69 | CCn1c(CSc2ncccn2)nnc1SCC(=O)N1CCc2ccccc21 | – | inconclusive: 22.5%
70 | Cc1ccc2c(c1)cc1c(=O)n(CC(=O)N3CCCC3)nc(C)n12 | inconclusive: 2.91 µM [activator, single point] | –
71 | CCc1ccc2c(c1)C1(NN=C(c3cccc4ccccc34)S1)C(=O)N2 (stereo unspecified) | inconclusive: 29.1 µM [cytotoxic, single point] | –
72 | CC(C)(C#CC(O)(c1ccccc1)c1ccccc1)N1CCCCC1 | inconclusive: 0.731 µM [falling, partial curve, poor fit] | –
73 | Cn1c(CCC(=O)OCC(=O)NCc2ccccc2Cl)nc(=O)c2ccccc21 | inconclusive: 2.31 µM [activator, full curve, poor fit] | –
74 | CCOc1ccccc1N(CC(=O)Nc1ccccc1C(=O)NCc1ccco1)S(C)(=O)=O | inconclusive: 3.26 µM [activator, single point] | –
75 | Cc1ccc(S(=O)(=O)c2c(N)n(CCN3CCOCC3)c3nc4ccccc4nc23)cc1C | – | inconclusive: 39%
76 | O=C1COc2ccc(N3C(=O)C=CC3=O)cc2N1 | inconclusive: 6.51 µM [cytotoxic, single point] | –
